Data reported in patent US20070055459A1 (Harvard, published 2007).
No constants are given. Whether binding was seen depends on the method and setting. Some binding calls cover weakened binding; strength is not graded here.

Target: T1, HSV UL42 (processivity factor of HSV DNA polymerase) (herpes simplex virus (HSV)) (UniProt P10226)
T1 sequence: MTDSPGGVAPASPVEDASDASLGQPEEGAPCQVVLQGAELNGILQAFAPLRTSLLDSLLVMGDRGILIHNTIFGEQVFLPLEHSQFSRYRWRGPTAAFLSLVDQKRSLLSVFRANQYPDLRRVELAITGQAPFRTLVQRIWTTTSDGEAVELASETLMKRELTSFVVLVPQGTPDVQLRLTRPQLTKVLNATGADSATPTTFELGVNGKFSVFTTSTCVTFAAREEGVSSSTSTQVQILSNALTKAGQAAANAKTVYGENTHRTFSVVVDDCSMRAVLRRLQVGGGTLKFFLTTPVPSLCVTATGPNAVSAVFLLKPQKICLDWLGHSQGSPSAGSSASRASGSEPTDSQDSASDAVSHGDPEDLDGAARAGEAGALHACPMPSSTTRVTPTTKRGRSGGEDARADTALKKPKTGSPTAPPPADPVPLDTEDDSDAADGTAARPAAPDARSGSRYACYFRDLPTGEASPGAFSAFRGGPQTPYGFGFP
Test: ITC

Binder	binding
ATAEETRRMLHRAFDTLA [Peptide E (last 18 residues of HSV DNA polymerase, Pol residues 1218-1235)]	binds
DDVAARLRAAGFGAVGAGATAEETRRMLHRAFDTLA [Peptide A (C-terminal 36 amino acid residues of HSV DNA polymerase, Pol residues 1200-1235)]	binds
